Laboratory results published in paper PMC10009991.
These are yes or no findings as the source states them, for the method shown. Binding seen in cells or lysates may run through a third protein. A result given as binding can be weak or reduced; the word gives no strength.

The chains behind the UniProt entries cited, without tags or fusion partners. Where a name states a change or a piece, a line headed by the entry shows the natural chain unless it says otherwise. Residues count along the entry.
UniProt P48061, residues 22-93: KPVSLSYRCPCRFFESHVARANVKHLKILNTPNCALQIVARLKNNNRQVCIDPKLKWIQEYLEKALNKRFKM
UniProt Q99542: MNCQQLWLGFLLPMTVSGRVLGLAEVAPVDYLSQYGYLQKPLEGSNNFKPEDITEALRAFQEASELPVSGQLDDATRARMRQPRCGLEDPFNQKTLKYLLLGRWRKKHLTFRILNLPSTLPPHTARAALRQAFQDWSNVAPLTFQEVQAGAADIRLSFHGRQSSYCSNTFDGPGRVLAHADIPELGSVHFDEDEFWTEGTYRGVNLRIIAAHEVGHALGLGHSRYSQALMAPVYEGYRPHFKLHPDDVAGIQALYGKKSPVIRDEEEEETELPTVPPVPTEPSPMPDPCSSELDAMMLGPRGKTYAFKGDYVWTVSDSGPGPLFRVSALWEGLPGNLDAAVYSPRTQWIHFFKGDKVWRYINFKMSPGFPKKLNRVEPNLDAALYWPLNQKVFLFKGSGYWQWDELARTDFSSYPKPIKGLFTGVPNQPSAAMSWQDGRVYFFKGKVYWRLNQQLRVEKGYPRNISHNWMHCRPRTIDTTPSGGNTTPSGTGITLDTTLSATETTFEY

Biological target: C-X-C motif chemokine ligand 12 (CXCL12, SDF1) (human (endogenous in HPMECs)) (UniProt P48061)
Assay: co-IP; HPMEC lysate (800 µg) with 8 µg of anti-MMP19, anti-ET1 or anti-SDF1, 4 °C overnight; Protein A/G magnetic beads (Pierce Classic Magnetic IP/Co-IP Kit), room temperature 3 h; immunoblot

binding: binds
Substance: Matrix metalloproteinase 19 (MMP19) (from UniProt Q99542) (enzyme)
